Assay results as given in PubChem BioAssay AID330 (DTP/NCI, 2004).
The list is a part of this screen's results and no random one: it gathers tests that were run many times, whatever their T/C, doses with no T/C, and many T/C values between a quarter and a half above the control. Further doses and runs are listed elsewhere. T/C is the treated group as % of the vehicle group. Some doses have a count of surviving animals in place of a T/C: the source files T/C as zero there, which appears to mark a toxic dose or a test without result, not a measured value. Some survivor counts are full or nearly so, which does not show that the dose was tolerated: survival well below the control is almost never listed, so the zero probably covers shortened survival too. Counts of survivors are from the toxicity check (mostly the fifth day) where no day follows; animals may have died later. Schedule codes are those of the source, read here as Q, the interval in days (D) or hours (H), X, the number of doses. Signs of the kind (2×) stand for listed records that agree. Some entries were tested several times; the values are given in rising order. Where survival is the endpoint, this PubChem deposit counts one and a half times the control or more as active, and values a quarter to a half above the control carry no call in these data; other NCI protocols may use other cut-offs. Some T/C values carry the count of animals alive at the toxicity check (mostly the fifth day); without a count, all were alive then.

Test system: P388 leukemia ip, CD2F1 mice, survival T/C
Test: NCI In Vivo Anticancer Drug Screen. Data for tumor model P388 Leukemia (intraperitoneal) in CD2F1 (CDF1) mice
Details: T/C endpoint: median survival time, higher T/C = longer survival
[1] = dose: 100.0 mg/kg/injection, schedule: Q01DX009 (ip), vehicle: distilled water + Tween-80
[2] = dose: 50.0 mg/kg/injection, schedule: Q01DX009 (ip), vehicle: saline
[3] = dose: 100.0 mg/kg/injection, schedule: Q01DX009 (ip), vehicle: saline
[4] = dose: 200.0 mg/kg/injection, schedule: Q01DX009 (ip), vehicle: saline
[5] = dose: 240.0 mg/kg/injection, schedule: Q01DX005 (ip), vehicle: saline with Tween-80
[6] = dose: 25.0 mg/kg/injection, schedule: Q01DX005 (ip), vehicle: Klucel (hydroxypropylcellulose) (HPC)
[7] = dose: 50.0 mg/kg/injection, schedule: Q01DX009 (ip), vehicle: saline with Tween-80
[8] = dose: 100.0 mg/kg/injection, schedule: Q01DX009 (ip), vehicle: saline with Tween-80
[9] = dose: 200.0 mg/kg/injection, schedule: Q01DX009 (ip), vehicle: saline with Tween-80
[10] = dose: 100.0 mg/kg/injection, schedule: Q04DX003 (ip), vehicle: saline
[11] = dose: 50.0 mg/kg/injection, schedule: Q01DX005 (ip), vehicle: Klucel (hydroxypropylcellulose) (HPC)
[12] = dose: 100.0 mg/kg/injection, schedule: Q01DX005 (ip), vehicle: Klucel (hydroxypropylcellulose) (HPC)
[13] = dose: 200.0 mg/kg/injection, schedule: Q01DX005 (ip), vehicle: Klucel (hydroxypropylcellulose) (HPC)

For Oc1c(Br)cc(Br)cc1/C=N/NC(=S)N/N=C/c1cc(Br)cc(Br)c1O, the T/C (dose: 50.0 mg/kg/injection, schedule: Q01DX009 (ip), vehicle: distilled water + Tween-80) was 137 % of control, the T/C [1] was 144 % of control and the survivor count [1] was 2 of 6. For the same compound, the survivor count (dose: 200.0 mg/kg/injection, schedule: Q01DX009 (ip), vehicle: distilled water + Tween-80) was 3 of 6 and the survivor count (dose: 400.0 mg/kg/injection, schedule: Q01DX009 (ip), vehicle: distilled water + Tween-80) was 1 of 6.

With CCC/C(C)=N/NC(=S)SC the survivor count [2] was 2 of 6, the survivor count [3] was 1 of 6 and the survivor count [4] was 0 of 6.

With CC1OC(C)C(O)C2=C1C(=O)c1ccccc1C2=O (configuration not stated) the survivor count [5] was 0 of 6.

In the case of O=C1SC(=NC2CCCCC2)N(C2CCCCC2)/C1=C1\C(=O)SC(=NC2CCCCC2)N1C1CCCCC1, the survivor count (dose: 60.0 mg/kg/injection, schedule: Q01DX005 (ip), vehicle: saline with Tween-80) is reported as 6 of 6 (2×), the survivor count (dose: 120.0 mg/kg/injection, schedule: Q01DX005 (ip), vehicle: saline with Tween-80) is reported as 6 of 6 and the survivor count [5] is reported as 6 of 6.

C/C=C/C=C(/C=O)[C@@H](O)C(C)=O was tested, and the T/C (dose: 4.0 mg/kg/injection, schedule: Q01DX009 (ip), vehicle: saline + alcohol) was 134 % of control, the T/C (dose: 8.0 mg/kg/injection, schedule: Q01DX009 (ip), vehicle: saline + alcohol) was 131 % of control and the survivor count (dose: 16.0 mg/kg/injection, schedule: Q01DX009 (ip), vehicle: saline + alcohol) was 0 of 6. For the same compound, the survivor count (dose: 32.0 mg/kg/injection, schedule: Q01DX009 (ip), vehicle: saline + alcohol) was 0 of 6.

In the case of O=C(NCSC1=NCCS1)NCSC1=NCCS1, the survivor count [2] is reported as 6 of 6 and the survivor count [4] is reported as 5 of 6.

In the case of CSc1cccc(NC(=O)Oc2ccc([N+](=O)[O-])cc2Cl)c1, the survivor count (dose: 25.0 mg/kg/injection, schedule: Q01DX009 (ip), vehicle: DMSO) is reported as 6 of 6, the survivor count (dose: 50.0 mg/kg/injection, schedule: Q01DX009 (ip), vehicle: DMSO) is reported as 3 of 6 and the survivor count (dose: 100.0 mg/kg/injection, schedule: Q01DX009 (ip), vehicle: DMSO) is reported as 2 of 6. For the same compound, the survivor count (dose: 200.0 mg/kg/injection, schedule: Q01DX009 (ip), vehicle: DMSO) was 0 of 6.

For O=C(Nc1ccccc1-c1ccccc1)C(=O)Nc1ccccc1-c1ccccc1, the survivor count (dose: 200.0 mg/kg/injection, schedule: Q01DX005 (ip), vehicle: saline with Tween-80) was 5 of 5.

For NC(=O)c1ccc(NC(=O)/C=C/C(=O)Nc2ccc(C(N)=O)cn2)nc1, the T/C (dose: 2.5 mg/kg/injection, schedule: Q01DX009 (ip), vehicle: saline with Tween-80) was 136 % of control, the T/C (dose: 5.0 mg/kg/injection, schedule: Q01DX009 (ip), vehicle: saline with Tween-80) was 127 % of control and the survivor count (dose: 10.0 mg/kg/injection, schedule: Q01DX009 (ip), vehicle: saline with Tween-80) was 6 of 6. The survivor count (dose: 40.0 mg/kg/injection, schedule: Q04DX003 (ip), vehicle: saline with Tween-80) was 6 of 6 and the T/C (dose: 2500.0 micrograms/kg/injection, schedule: Q01DX009 (ip), vehicle: saline with Tween-80) was 127 % of control.

With C=C1C(=O)OC2C1C(OC(=O)/C(C)=C/CO)C/C(C)=C/CCC1(CO)OC21 (configuration not stated) the T/C (dose: 2.0 mg/kg/injection, schedule: Q01DX009 (ip), vehicle: Klucel (hydroxypropylcellulose) (HPC)) was 125 % of control.

With CCOC(=O)/C(=C(\C)N)n1[nH]c(=O)n(-c2ccccc2)c1=O the survivor count [6] was 6 of 6.

In the case of Cc1cc2nc3ccc(O)cc3[n+](C)c2cc1N, the T/C [7] is reported as 131 % of control, the T/C [8] is reported as 127 % of control and the survivor count [9] is reported as 0 of 6.

In the case of CC[n+]1ccc2c(C)c3[nH]c4ccc(O)cc4c3c(C)c2c1, the survivor count (dose: 25.0 mg/kg/injection, schedule: Q04DX003 (ip), vehicle: saline) is reported as 3 of 6, the survivor count (dose: 50.0 mg/kg/injection, schedule: Q04DX003 (ip), vehicle: saline) is reported as 2 of 6 and the survivor count [10] is reported as 5 of 6. For the same compound, the survivor count (dose: 200.0 mg/kg/injection, schedule: Q04DX003 (ip), vehicle: saline) was 0 of 6.

For CN1CCC(COC(=O)CC(C)(C)C)C1 (configuration not stated), the survivor count (dose: 200.0 mg/kg/injection, schedule: Q01DX009 (ip), vehicle: water) was 0 of 6.

For OC(Cc1ccnc2ccccc12)C(Cl)(Cl)Cl (configuration not stated), the survivor count (dose: 100.0 mg/kg/injection, schedule: Q04DX003 (ip), vehicle: saline with Tween-80) was 6 of 6.

For CC1=CC(=Nc2ccc(N(C)C)cc2)C=CC1=O, the survivor count (dose: 25.0 mg/kg/injection, schedule: Q01DX009 (ip), vehicle: saline with Tween-80) was 4 of 6 and 5 of 6, the survivor count [7] was 2 of 6 and the survivor count [8] was 0 of 6. The survivor count [9] was 0 of 6 and the survivor count (dose: 400.0 mg/kg/injection, schedule: Q01DX009 (ip), vehicle: saline with Tween-80) was 0 of 6.

For Cc1ccc2[nH]cc(C3CCCN4CCCCC34)c2c1 (configuration not stated), the survivor count (dose: 180.0 mg/kg/injection, schedule: Q01DX001 (ip), vehicle: saline with Tween-80) was 0 of 6 and the survivor count (dose: 360.0 mg/kg/injection, schedule: Q01DX001 (ip), vehicle: saline with Tween-80) was 0 of 6.

For N#C[S-].N#C[S-].N#C[S-].N#C[S-].[Cr+6].[NH2-].[NH2-], the survivor count [10] was 3 of 6.

In the case of Nc1ccc(N=Nc2ccc3cc4ccc(N=Nc5ccc(N)nc5N)cc4nc3c2)c(N)n1, the survivor count (dose: 50.0 mg/kg/injection, schedule: Q01DX005 (ip), vehicle: saline with Tween-80) is reported as 3 of 6.

CCCCCCC(O)C/C=C\CCCCCCc1c(C(=O)OC)[nH]c(=S)[nH]c1=O (configuration not stated) was tested, and the survivor count [5] was 0 of 6.

In the case of CC1OC(C)(C2CC2)OC1C (configuration not stated), the survivor count (dose: 400.0 mg/kg/injection, schedule: Q04DX003 (ip), vehicle: Klucel (hydroxypropylcellulose) (HPC)) is reported as 0 of 6.

With O=c1cccccc1O the T/C [2] was 100 % of control [4 of 6 alive], the survivor count [2] was 2 of 6, 3 of 6, 4 of 6 and the T/C [3] was 99, 100 [5 of 6 alive], 101 [5 of 6 alive], 104 % of control. For the same compound, the survivor count [4] was 3 of 6 and the survivor count (dose: 400.0 mg/kg/injection, schedule: Q01DX009 (ip), vehicle: saline) was 0 of 6.

With CCN=C(c1ccc(NC(=O)c2ccc(C(=O)Nc3ccc(C(=NCC)N(CC)CC)cc3)cc2)cc1)N(CC)CC the survivor count (dose: 3.12 mg/kg/injection, schedule: Q01DX005 (ip), vehicle: Klucel (hydroxypropylcellulose) (HPC)) was 0 of 6, the survivor count (dose: 6.25 mg/kg/injection, schedule: Q01DX005 (ip), vehicle: Klucel (hydroxypropylcellulose) (HPC)) was 0 of 6 and the survivor count (dose: 12.5 mg/kg/injection, schedule: Q01DX005 (ip), vehicle: Klucel (hydroxypropylcellulose) (HPC)) was 0 of 6. For the same compound, the survivor count [6] was 0 of 6, the survivor count [11] was 0 of 6 and the survivor count [12] was 0 of 6. The survivor count [13] was 0 of 6.

With NNP(=S)(NN)Oc1ccccc1 the survivor count [11] was 0 of 5, the survivor count [12] was 0 of 5 and the survivor count [13] was 0 of 5.

In the case of COc1cc2oc(=O)ccc2cc1[C@@H]1OC(=O)C2(C)O[C@@H]12 (some centres not stated), the T/C (dose: 10.0 mg/kg/injection, schedule: Q01DX009 (ip), vehicle: saline) is reported as 149 % of control.

In the case of Cc1nn(-c2ccccc2)c(SC(C)(C)C)c1C=NCCN=Cc1c(C)nn(-c2ccccc2)c1SC(C)(C)C, the survivor count (dose: 30.0 mg/kg/injection, schedule: Q01DX005 (ip), vehicle: Klucel (hydroxypropylcellulose) (HPC)) is reported as 6 of 6, the survivor count (dose: 60.0 mg/kg/injection, schedule: Q01DX005 (ip), vehicle: Klucel (hydroxypropylcellulose) (HPC)) is reported as 5 of 6 and the survivor count (dose: 120.0 mg/kg/injection, schedule: Q01DX005 (ip), vehicle: Klucel (hydroxypropylcellulose) (HPC)) is reported as 2 of 6.

In the case of c1ccc2c(SCCSc3c4ccccc4nc4ccccc34)c3ccccc3nc2c1, the survivor count (dose: 240.0 mg/kg/injection, schedule: Q01DX005 (ip), vehicle: Klucel (hydroxypropylcellulose) (HPC)) is reported as 0 of 6.

With COc1ccccc1N=N/C(=N\Nc1ccccc1OC)C(=O)Nc1ccccc1 the survivor count [2] was 6 of 6 and the survivor count [4] was 5 of 6.
